As usually defined, the AC50 is the midpoint of the concentration-response curve, whichever way the signal moves.

The experiment can be described thus: IkB Signaling. Conditions: ABC-DLBCL IkBa-CBG/CBR dual luciferase ratio (green luciferase fused to IkBa over red control in OCI-Ly3 lymphoma cells), 4 h. In outline: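 In this assay, an IκBα–CBG68 fusion accumulates when IKK-driven degradation is blocked; native CBR normalizes for cell number. OCI-Ly3 cells were treated 4 h with compound and doxycycline, then green and red light read after Chroma-Glo addition.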
[1] abbreviates: measured here: control luc red channel unless noted.
Setting [2] is: measured here: IkB-luc green channel.
Setting [3] is: measured here: control luc red channel.

Some of the results follow. Shown are side measurements of this screen, not its main read-out; they come without a call. The list favours compounds with an active or inconclusive main result. Words in brackets tell the shape of the fitted curve; partial curves, single points and poor fits give uncertain potencies.

With `NC(=O)c1ccccc1NC(=O)CN1c2ccccc2S(=O)(=O)c2ccccc21`, the half-maximal activity concentration (AC50) under setting [1] is 39.8 µM [falling, single point].

As to `O=C(Nc1cc(-c2ccccc2F)nn1-c1ccccc1)c1ccccc1Br`, under setting [1], the AC50 was 39.8 µM [falling, partial curve, poor fit].

For the compound `CCCCCOC(=O)CSc1nc2sc3c(c2c(=O)n1-c1ccccc1)CC(C)(CC)OC3` (stereo not given), the AC50 under setting [1] is 3.16 µM [falling, partial curve].

Consider `CCOC(=O)c1noc2ncnc(N3CCN(c4cccc(C(F)(F)F)c4)CC3)c12`, for which, under setting [1], the half-maximal activity concentration (AC50) is 15.8 µM [falling, partial curve].

`COc1ccc(Cn2c(=O)n(-c3ccc(OC)cc3)c(=O)c3c2c2cc(OC)ccc2n3C)cc1`: the AC50 under setting [1] was 6.31 µM [rising, single point] [measured here: IkB-luc green channel].

On to `O=C(c1cc(-c2ccc3c(c2)OCO3)on1)N1CCOCC1`, for which, under setting [1], the AC50 was 10 µM [falling, partial curve].

In the case of `COc1ccc(-c2cc(C)no2)cc1S(=O)(=O)NCc1ccco1`, the concentration at half-maximal activity (AC50) is 31.6 µM [rising, single point] under setting [2] and 15.8 µM [rising, partial curve] under setting [3].

As to `CCN(CC)S(=O)(=O)c1ccc2c(c1)c(=O)c(C(=O)NCc1ccccc1Cl)cn2C`, the AC50 under setting [1] was 39.8 µM [falling, single point].

`COc1ccc(-n2c(SCc3ccccc3F)nc3c([nH]c4ccccc43)c2=O)cc1OC`: the AC50 under setting [1] was 0.398 µM [falling, full curve, poor fit].

As to `COc1cc(NC(=O)c2c3c(nc4ccccc24)C(=O)N(C2CCCCC2)C3)cc(OC)c1`, the AC50 under setting [1] was 12.6 µM [falling, partial curve].

Take `O=C(CSc1c2c(nc3cc(Cl)ccc13)CCCC2)N1CCN(c2ccccc2)CC1`: the AC50 under setting [1] is 7.94 µM [falling, partial curve].

With `COc1cccc([C@H]2Nc3ccc(S(=O)(=O)Nc4cc(C)ccc4C)cc3[C@H]3C=CC[C@H]32)c1`, the AC50 under setting [1] is 10 µM [falling, partial curve].

Turning to `Nc1nonc1C(=O)NCCNCc1cc(Br)ccc1OCc1ccccc1F`, the half-maximal activity concentration (AC50) under setting [1] was 15.8 µM [falling, partial curve].

As for `O=C(Cn1ncc2c1-c1ccccc1OC2)Nc1nc2ccccc2s1`, the AC50 is, setting by setting: under setting [2], 15.8 µM [falling, partial curve]; under setting [3], 7.94 µM [falling, partial curve].

As for `CC(=O)c1cc(-c2ccc(F)cc2)n(CC(=O)NCc2ccc(C)cc2)c1C`, under setting [1], the AC50 is 1.58 µM [falling, partial curve].

On to `Cc1cc(C)c(OCC(=O)Nc2cccc(-c3nc4ncccc4o3)c2)c(Br)c1`, for which the AC50 under setting [1] was 10 µM [falling, partial curve].

In the case of `COc1ccccc1NC(=O)C1C2C=CC(O2)C1C(=O)O` (stereo not given), the AC50 under setting [1] was 12.6 µM [falling, partial curve].

Turning to `COc1cc(Cl)c(C)cc1NC(=O)NC1COc2ccccc2C1` (stereo not given), the half-maximal activity concentration (AC50) under setting [1] was 20 µM [falling, partial curve].

For the compound `CCc1ccc(-c2ccc3nnc(SCC(=O)Nc4cccc(C(C)=O)c4)n3n2)cc1`, the AC50 under setting [1] was 2.51 µM [rising, partial curve].

As for `Cc1nc2c(C(=O)NCc3ccc4c(c3)OCO4)c[nH]n2c(=O)c1Cc1ccccc1F`, the AC50 under setting [1] is 7.94 µM [falling, partial curve].

In the case of `COc1cccc(-n2nnc3c(=O)n(CC(=O)NCC4CCCO4)cnc32)c1` (stereo not given), the AC50 under setting [1] is 0.01 µM [falling, full curve].

As for `COc1ccc(CCNC(=O)Cn2c(-c3cccs3)cc3cc(F)ccc32)cc1OC`, under setting [1], the AC50 is 1 µM [falling, full curve, poor fit].

Consider `CC(=O)[C@@H]1[C@@H]2C(=O)N(Cc3ccccc3)C(=O)[C@@H]2C2c3ccccc3C=CN21` (stereo not given in full), for which the AC50 under setting [1] is 12.6 µM [falling, partial curve].

`COc1ccc(NC(=O)c2c(C)oc3ccc(O)c(CN4CCCC(C)C4)c23)cc1` (stereo not given): the AC50 under setting [1] was 25.1 µM [falling, single point].

In the case of `COc1ccc(NC(=O)c2oc3ccccc3c2NC(=O)c2cc(OC)c(OC)c(OC)c2)cc1`, under setting [1], the AC50 is 7.94 µM [falling, partial curve].

Take `COc1ccc(CCNC(=O)CN2C(=O)COc3ccccc32)cc1OC`: the AC50 under setting [1] was 0.0126 µM [falling, full curve, poor fit].

With `COc1ccccc1N1CCN(c2nc3ccccc3n3nnnc23)CC1`, under setting [1], the AC50 is 0.398 µM [falling, full curve].

With `Cc1cc(C)cc(OCC(=O)NCC2(N3CCOCC3)CCCCC2)c1`, under setting [1], the AC50 was 39.8 µM [falling, single point].

For the compound `c1cncc(-c2nnc(SCc3cccc4ccccc34)o2)c1`, under setting [1], the AC50 was 6.31 µM [falling, single point].

For the compound `Cc1ccc(S(=O)(=O)Nc2cc3c(C(=O)OCc4ccccc4)c(C)oc3c3ccccc23)cc1`, under setting [1], the half-maximal activity concentration (AC50) is 15.8 µM [falling, single point].

Turning to `Cc1ccc(CSc2ncccc2C(=O)O)cc1`, the AC50 under setting [1] is 5.01 µM [rising, full curve].

In the case of `COc1cccc(-c2nc(CS(=O)(=O)CC(=O)NCCCc3ccccc3)c(C)o2)c1`, under setting [1], the AC50 was 39.8 µM [falling, single point].

Turning to `CCN(CC)c1ccc(NC(=O)c2sc3nc(-c4ccccc4)cn3c2C)cc1`, the AC50 under setting [1] was 3.98 µM [falling, full curve].

`CCOC(=O)c1cccc(NC(=O)NCc2ccc3c(c2)CCN3C(=O)CC)c1`: the AC50 under setting [1] is 10 µM [falling, partial curve].

As for `Cc1nc(-c2ccc(F)cc2)sc1CCNC(=O)C(=O)Nc1ccc2c(c1)OCO2`, the AC50 under setting [1] was 15.8 µM [rising, partial curve].

`CCOC(=O)N1CCC(Nc2nc3ccccc3n3nnnc23)CC1`: the AC50 under setting [1] is 0.501 µM [falling, full curve].

In the case of `Cn1cc(SCC(=O)Nc2nc3ccccc3s2)c2ccccc21`, under setting [1], the AC50 was 10 µM [falling, partial curve].

`CCCN(C(=O)NCc1noc2ccc(C)cc12)c1ccc(Cl)c(Cl)c1`: the AC50 under setting [1] was 15.8 µM [falling, partial curve].

Take `Cc1ccc(Cl)cc1NC(=O)C1CCCN(S(=O)(=O)c2c(C)noc2/C=C/N(C)C)C1` (stereo not given): the AC50 under setting [1] was 25.1 µM [falling, partial curve].

On to `O=C(Nc1ccccc1C(=O)OCc1cc(=O)n2ccsc2n1)c1cccc(F)c1`, for which the AC50 under setting [1] was 3.98 µM [rising, partial curve].

With `Cc1ccc2nc(/C(C#N)=C/c3ccc(-c4ccc(F)cc4F)o3)[nH]c2c1`, the AC50 under setting [1] is 6.31 µM [falling, full curve].

For `Cc1c(CCC(=O)NCCc2ccccc2F)c(=O)oc2cc(O)ccc12`, the AC50 under setting [1] is 39.8 µM [falling, single point].

As for `O=C(c1ccc(CSc2nc3ccncc3n2Cc2ccccc2F)cc1)N1CCCCC1`, under setting [1], the AC50 was 31.6 µM [falling, partial curve].

As to `CCOc1ccccc1Nc1sc(C(=O)c2ccc(Cl)cc2)c(N)c1C#N`, under setting [1], the AC50 was 12.6 µM [rising, partial curve].

With `O=C(NCCc1ccccc1)c1cc(-c2ccccc2)nc2n[nH]c(-c3ccccc3)c12`, under setting [1], the AC50 was 0.794 µM [falling, full curve].

In the case of `C=CCn1c(C#N)c(N)sc1=N`, the AC50 under setting [1] was 25.1 µM [falling, partial curve].

As for `CN(C)c1ccc(/C=C(\C#N)c2nc3ccccc3c(=O)[nH]2)cc1`, the AC50 under setting [1] is 6.31 µM [falling, full curve].

For `COCc1cc(=O)n2c(-c3ccc(C)cc3)n[nH]c2n1`, the AC50 under setting [1] was 5.01 µM [falling, full curve].

Take `CCC(C)n1c(=N)c(S(=O)(=O)c2ccccc2)cc2c(=O)n3ccccc3nc21` (stereo not given): under setting [1], the AC50 is 0.2 µM [rising, full curve].

Take `O=C(CSc1nc(O)cc(=O)n1-c1ccccc1)N1CCCCC1`: the AC50 under setting [1] is 10 µM [falling, partial curve].

Regarding `COc1cc2nc(SCc3ccc(F)cc3)n3nc(CCn4c(C)nc5ccccc54)nc3c2cc1OC`, the AC50 under setting [1] is 31.6 µM [rising, partial curve] [measured here: IkB-luc green channel].

As to `C=CCn1c(SCC(=O)N2CCN(c3ccc(F)cc3)CC2)nnc1-c1ccco1`, the concentration at half-maximal activity (AC50) under setting [1] was 20 µM [falling, partial curve].

On to `CCC(Sc1nc(C)cc(=O)[nH]1)C(=O)Nc1sc2c(c1C#N)CCCC2` (stereo not given), for which the AC50 under setting [1] was 10 µM [falling, partial curve].

As to `CCOC(=O)c1cnc(-n2nc(C)cc2C)nc1NC(C)c1ccccc1` (stereo not given), the AC50 under setting [1] was 12.6 µM [falling, partial curve].

For the compound `COc1ccc(CCCc2nnc(SCC(=O)Nc3ccc(C)c(C)c3)o2)cc1`, under setting [1], the AC50 was 20 µM [falling, partial curve].

With `CC(C)NS(=O)(=O)c1ccc(OCC(=O)N2CCN(c3ccccc3F)CC2)cc1`, under setting [1], the AC50 was 31.6 µM [falling, single point].

With `NC(=O)c1ccsc1NC(=O)COc1ccccc1`, the AC50 under setting [1] was 7.94 µM [falling, partial curve].

`O=C(c1ccc(CS(=O)c2ccccc2Cl)o1)N1CCN(c2ccccc2F)CC1` (stereo not given): the AC50 under setting [1] is 31.6 µM [falling, single point].

For `COc1cccc(C(=O)N(Cc2cccc(Cl)c2)Cc2ccco2)c1`, the AC50 under setting [1] is 12.6 µM [falling, partial curve].

Regarding `c1ccc2c(c1)CCCN2c1nc2ccccc2n2cnnc12`, under setting [1], the AC50 is 20 µM [falling, partial curve].

`CC(C)(C)c1ccc(OCC(=O)Nc2c(C(=O)c3ccc(F)cc3)oc3ccccc23)cc1`: the AC50 under setting [1] was 20 µM [rising, single point].

On to `N#CC1=C(N)SC(N)=C(C#N)C1CCc1ccccc1`, for which the AC50 is, setting by setting: under setting [2], 25.1 µM [falling, single point]; under setting [3], 10 µM [falling, partial curve].

(Values after PubChem BioAssay AID445 (National Center for Advancing Translational Sciences (NCATS), 2006).)
